PubChem BioAssay AID1159593, NIAID – 2016

Screen: 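TLR pathway parts governing NF-kappaB p65 translocation after LPS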
Cells: RAW264.7 macrophages of mouse, with reporters for p65 (GFP) and the Tnf promoter (mCherry)
Reagent: single siRNA against mouse genes
Timing: 48 to 72 hours after siRNA transfection, then LPS for 40 min
Challenge: LPS (Salmonella minnesota R595) for 40 min before fixation; dose not given
Measurement: 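High-content imaging of GFP-p65 moving into nuclei after 40 min LPS, plate median/MAD normalised, replicate mean of robust z-score relative to negative controls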
Scale: p65 translocation z-score: higher = more nuclear NF-kappaB p65 after LPS
Rule for the call: 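z scored in tiers by size in both directions (1, 1.5, 2, 2.5); stated active cut-off missing, but called actives lie near absolute z 1.5 or above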
Meaning of the calls: active = changed p65 translocation (either direction); inactive = no clear change
In all, the deposit lists 756 reagents; this is a random part of them. Of all reagents, 137 (18%) were called active. 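Active means p65 translocation went either up or down; genes were judged on the median of six siRNAs, not single siRNAs.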 The numbers tell different reagents against one gene apart. Not given: the amount of reagent.

What did the screen give for Tlr6 (GeneID 21899) #1?
p65 translocation z-score: 0.31; Outcome: inactive

With Tlr6 (GeneID 21899) #2, how do the results read?
p65 translocation z-score: 0.0936; Outcome: inactive

For Tlr6 (GeneID 21899) #3, what was measured?
p65 translocation z-score: -1.12; Outcome: inactive

With Tlr6 (GeneID 21899) #4, how do the results read?
p65 translocation z-score: 0.263; Outcome: inactive

With Tlr6 (GeneID 21899) #5, what does the deposit list?
p65 translocation z-score: 0.418; Outcome: inactive

How did the screen score Tlr6 (GeneID 21899) #6?
p65 translocation z-score: -0.138; Outcome: inactive

For Mapkapk2 (GeneID 17164) #1, what was measured?
p65 translocation z-score: -1.39; Outcome: inactive

With Mapkapk2 (GeneID 17164) #2, how do the results read?
p65 translocation z-score: 0.486; Outcome: inactive

With Mapkapk2 (GeneID 17164) #3, what does the deposit list?
p65 translocation z-score: -0.525; Outcome: inactive

Which result is listed for Mapkapk2 (GeneID 17164) #4?
p65 translocation z-score: -1.56; Outcome: active

For Mapkapk2 (GeneID 17164) #5, what was measured?
p65 translocation z-score: -0.211; Outcome: inactive

For Mapkapk2 (GeneID 17164) #6, what does the deposit list?
p65 translocation z-score: -0.564; Outcome: inactive

With Itgam (GeneID 16409) #1, what was measured?
p65 translocation z-score: 0.0369; Outcome: inactive

What did the screen give for Itgam (GeneID 16409) #2?
p65 translocation z-score: -0.29; Outcome: inactive

With Itgam (GeneID 16409) #3, what does the deposit list?
p65 translocation z-score: -0.359; Outcome: inactive

For Itgam (GeneID 16409) #4, how do the results read?
p65 translocation z-score: 0.643; Outcome: inactive

With Itgam (GeneID 16409) #5, what was measured?
p65 translocation z-score: -1.11; Outcome: inactive

With Itgam (GeneID 16409) #6, how do the results read?
p65 translocation z-score: -0.915; Outcome: inactive

Which result is listed for Ticam2 (GeneID 225471) #1?
p65 translocation z-score: -1.4; Outcome: inactive

Which result is listed for Ticam2 (GeneID 225471) #2?
p65 translocation z-score: -0.702; Outcome: inactive

How did the screen score Ticam2 (GeneID 225471) #3?
p65 translocation z-score: 0.571; Outcome: inactive

With Ticam2 (GeneID 225471) #4, how do the results read?
p65 translocation z-score: -0.168; Outcome: inactive

With Ticam2 (GeneID 225471) #5, what was measured?
p65 translocation z-score: 0.228; Outcome: inactive

For Ticam2 (GeneID 225471) #6, how do the results read?
p65 translocation z-score: -1.72; Outcome: active

An excerpt of the results above:
Itgam (GeneID 16409) #3: p65 translocation z-score = -0.359; Outcome = inactive
Itgam (GeneID 16409) #4: p65 translocation z-score = 0.643; Outcome = inactive
Itgam (GeneID 16409) #5: p65 translocation z-score = -1.11; Outcome = inactive
Itgam (GeneID 16409) #6: p65 translocation z-score = -0.915; Outcome = inactive
Ticam2 (GeneID 225471) #1: p65 translocation z-score = -1.4; Outcome = inactive

The listing continues:
Which result is listed for Traf6 (GeneID 22034) #1?
p65 translocation z-score: -2.26; Outcome: active

What is on record for Traf6 (GeneID 22034) #2?
p65 translocation z-score: -1.22; Outcome: inactive

With Traf6 (GeneID 22034) #3, what does the deposit list?
p65 translocation z-score: -1.93; Outcome: active

Which result is listed for Traf6 (GeneID 22034) #4?
p65 translocation z-score: -0.967; Outcome: inactive

How did the screen score Traf6 (GeneID 22034) #5?
p65 translocation z-score: -1.6; Outcome: active

What did the screen give for Traf6 (GeneID 22034) #6?
p65 translocation z-score: -2.41; Outcome: active

With Egr2 (GeneID 13654) #1, what was measured?
p65 translocation z-score: -1.15; Outcome: inactive

Which result is listed for Egr2 (GeneID 13654) #2?
p65 translocation z-score: -0.243; Outcome: inactive

For Egr2 (GeneID 13654) #3, how do the results read?
p65 translocation z-score: -1.98; Outcome: active

How did the screen score Egr2 (GeneID 13654) #4?
p65 translocation z-score: -0.968; Outcome: inactive

What did the screen give for Egr2 (GeneID 13654) #5?
p65 translocation z-score: 0.838; Outcome: inactive

What is on record for Egr2 (GeneID 13654) #6?
p65 translocation z-score: -1.09; Outcome: inactive

With Ripk1 (GeneID 19766) #1, what does the deposit list?
p65 translocation z-score: -1.51; Outcome: active

What did the screen give for Ripk1 (GeneID 19766) #2?
p65 translocation z-score: 0.13; Outcome: inactive

With Ripk1 (GeneID 19766) #3, what does the deposit list?
p65 translocation z-score: 0.676; Outcome: inactive

How did the screen score Ripk1 (GeneID 19766) #4?
p65 translocation z-score: -1.4; Outcome: inactive

What is on record for Ripk1 (GeneID 19766) #5?
p65 translocation z-score: 0.673; Outcome: inactive

With Ripk1 (GeneID 19766) #6, what was measured?
p65 translocation z-score: 1.47; Outcome: inactive

Which result is listed for Ets1 (GeneID 23871) #1?
p65 translocation z-score: 0.473; Outcome: inactive

With Ets1 (GeneID 23871) #2, what was measured?
p65 translocation z-score: 0.209; Outcome: inactive

For Ets1 (GeneID 23871) #3, what was measured?
p65 translocation z-score: -0.74; Outcome: inactive

Which result is listed for Ets1 (GeneID 23871) #4?
p65 translocation z-score: 1.39; Outcome: inactive

How did the screen score Ets1 (GeneID 23871) #5?
p65 translocation z-score: -2.24; Outcome: active

For Ets1 (GeneID 23871) #6, what was measured?
p65 translocation z-score: 0.237; Outcome: inactive

What did the screen give for Rel (GeneID 19696) #1?
p65 translocation z-score: -0.639; Outcome: inactive

For Rel (GeneID 19696) #2, how do the results read?
p65 translocation z-score: 0.679; Outcome: inactive

With Rel (GeneID 19696) #3, what does the deposit list?
p65 translocation z-score: 1.03; Outcome: inactive

For Rel (GeneID 19696) #4, what does the deposit list?
p65 translocation z-score: -0.115; Outcome: inactive

With Rel (GeneID 19696) #5, what does the deposit list?
p65 translocation z-score: -0.508; Outcome: inactive

What did the screen give for Rel (GeneID 19696) #6?
p65 translocation z-score: -0.445; Outcome: inactive

With Lbp (GeneID 16803) #1, how do the results read?
p65 translocation z-score: -0.202; Outcome: inactive

With Lbp (GeneID 16803) #2, what was measured?
p65 translocation z-score: -1.83; Outcome: active

How did the screen score Lbp (GeneID 16803) #3?
p65 translocation z-score: 0.978; Outcome: inactive

What did the screen give for Lbp (GeneID 16803) #4?
p65 translocation z-score: -0.754; Outcome: inactive

With Lbp (GeneID 16803) #5, how do the results read?
p65 translocation z-score: 1.03; Outcome: inactive

For Lbp (GeneID 16803) #6, what was measured?
p65 translocation z-score: -0.286; Outcome: inactive
